# Results of single-concentration screens

The chains behind the UniProt entries cited, without tags or fusion partners. Residues count along the entry.
UniProt Q8IDJ8, 1-583: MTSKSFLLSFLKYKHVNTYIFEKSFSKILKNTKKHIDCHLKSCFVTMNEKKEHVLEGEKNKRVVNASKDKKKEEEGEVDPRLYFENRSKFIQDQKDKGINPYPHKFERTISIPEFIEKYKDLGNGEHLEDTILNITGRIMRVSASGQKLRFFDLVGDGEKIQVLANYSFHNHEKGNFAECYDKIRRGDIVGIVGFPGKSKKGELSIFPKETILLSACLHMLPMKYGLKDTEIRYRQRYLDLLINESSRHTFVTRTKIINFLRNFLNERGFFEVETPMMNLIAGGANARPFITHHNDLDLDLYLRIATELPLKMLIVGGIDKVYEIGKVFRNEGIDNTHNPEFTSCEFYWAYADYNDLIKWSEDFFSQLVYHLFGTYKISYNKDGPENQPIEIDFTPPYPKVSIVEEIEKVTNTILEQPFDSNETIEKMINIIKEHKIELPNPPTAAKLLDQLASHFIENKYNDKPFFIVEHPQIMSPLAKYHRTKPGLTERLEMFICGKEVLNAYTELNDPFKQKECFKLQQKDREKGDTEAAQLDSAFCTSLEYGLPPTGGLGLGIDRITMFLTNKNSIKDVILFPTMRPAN

Source: ChEMBL document CHEMBL3988442, “University of Dundee, Small-Polar-MMV Screening Library” (2021).

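Enzyme assay of the cytosolic lysyl-tRNA synthetase in 384-well plates, read by luminescence. Target: Lysine-tRNA ligase, Plasmodium falciparum 3D7 (UniProt Q8IDJ8). Compounds at 30 µM. Higher reads as stronger inhibition, judged from the few compounds that gave an IC50. About 69,000 compounds were tested under these conditions; 0.071% (about 49) showed 50% or more at least once.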

Values are the deposited “Percent Effect”, in %.
How 0% and 100% were set is not recorded. Most values in the screen are low, and negative values occur.
Compounds were drawn at random from those tested, without regard to their results.

SMILES,effect
CCCC(=O)N1CCC2(CC1)COC2,-0.1835
CC(C)Nc1nc2c(cc1C(=O)N(C)C)CCNCC2,3.536
CCN(CC)C(CNC(=O)c1ccc(-n2cncn2)cc1)c1ccsc1 (stereo unspecified),10.35
CCC(CNc1ncnc2oc(C)nc12)Cc1ccccc1 (stereo unspecified),-2.528
Cn1cccc1C(=O)NC[C@H]1C[C@@H]2CN(C(=O)c3ccno3)C[C@H]2O1,2.443
O=C(CCc1ccsc1)N1CCCC(N2CCNC2=O)C1 (stereo unspecified),12.53
Cc1cccc(C(C)(C)CNc2cn[nH]c(=O)c2Cl)c1,2.009
CN(C)C(=O)CN1CCN(C(=O)C2CSc3ccccc3O2)CC1 (stereo unspecified),3.121
COCC(=O)NC[C@@]1(COc2cnccn2)C[C@@H](O)[C@@H](O)C1,6.043
CN(C)c1ccc(NC(=O)c2ccnn2C)nc1,-16.67
COc1ccccc1C1(CNc2ncc(S(N)(=O)=O)s2)CC1,3.621
CCCn1cc(-c2cc(C(=O)N(C)C)c3ccc(C)cc3n2)cn1,-5.414
CCOc1cc(CNCC2CN(C3CC3)CCO2)ccc1OC (stereo unspecified),2.597
CCN(CC)C(=O)Cn1c(=O)n(Cc2ccco2)c2ncccc21,2.33
c1cncc(OC[C@]23COC[C@H]2CN(Cc2nccs2)C3)c1,0.3327
CCN(CC)C(=O)c1ccc(NC(=O)CNc2ccc(F)cc2Cl)cc1,6.883
Cc1oc(-c2ccco2)nc1CC(=O)NCC(C)(C)N(C)C,-4.189
CC(=O)Nc1ccc(CNc2ccn(Cc3ccccc3)n2)cc1,3.816
O=S(=O)(C1CC1)N1CCC2(CC1)CC(Oc1cccnc1)CO2 (stereo unspecified),2.755
CC1(C)CCN1C(=O)c1cc(F)cc2[nH]cnc12,43.07
Cc1cc(C)n(CC2CN(Cc3cccc(C#N)c3)CCO2)n1 (stereo unspecified),5.984
COCCNc1nc2c(c(N3CCn4nc(C)cc4C3)n1)CCNCC2,-1.789
Cc1nc(N(Cc2ccncc2)CC2CCCO2)c2ccsc2n1 (stereo unspecified),7.281
O=C(CC1CC1)NCc1cn2c(n1)CN(CC1CC1)CC2,-0.7745
COc1ccc(OC(F)F)c(NCC(=O)NCC(=O)N2CCCC2)c1,1.747
CN(C)c1ncccc1CNC(=O)N1CCCC1CN1CCCCC1 (stereo unspecified),5.576
c1cncc(OC[C@@]23CCC[C@@H]2CN(C2CCOCC2)C3)c1,5.458
Cc1cc(C(=O)NC(CC(C)C)C(=O)Nc2cc[nH]n2)c(C)o1 (stereo unspecified),7.215
COc1ccc(C)cc1C(=O)NC(CC(=O)O)c1cccs1 (stereo unspecified),0.5314
Cn1nc2c(cc1=O)CN(Cc1coc(-c3ccccc3)n1)CC2,1.899
CNC(=O)CN1CCO[C@H]2CN(CC3CCOCC3)C[C@H]21,4.354
CC(C)=CCCC1(C)CCC(=O)N(CCc2csc(N)n2)C1 (stereo unspecified),5.298
CCOC1COC2(CCN(Cc3ccc(F)cc3)CC2)C1 (stereo unspecified),1.679
CCn1cc(NC(=O)C2CCN(Cc3nc(C)c(C)o3)CC2)cn1,6.851
CCCn1c(N2CCCC2)nc2c(C)nn(C)c2c1=O,2.509
Cc1nc(C2CCCN2C(=O)COCc2ccccc2)no1 (stereo unspecified),-0.6061
O=C(Cc1ccn[nH]1)Nc1cncc(Br)c1O,-0.7471
CCOC(=O)N1CCN(c2nc(N3CCCC3)c3ccccc3n2)CC1,6.679
COCCN1CCc2ncnc(-c3ccccc3)c2CC1,3.728
Cc1cc(CNCC2Cn3nnc(C)c3CO2)oc1C (stereo unspecified),7.424
C[C@]1(O)CCN(Cc2cccnc2)C[C@@H]1Oc1cccc(F)c1,4.398
O=C1CC(NS(=O)(=O)N2CCOCC2)CN1Cc1ccccc1 (stereo unspecified),-0.2479
CN(C)CC1(O)CCN(C(=O)Cc2ccc(Cl)c(Cl)c2)C1 (stereo unspecified),0.4894
CCOCCCNC(=O)C1(C)CCC(=O)N1c1cc(OC)ccc1OC (stereo unspecified),0.3852
COc1ccc(CC(=O)N2C[C@@H]3COC[C@]3(CN(C)C)C2)cc1,1.021
N#Cc1ccc(CNCCn2cccn2)c(F)c1,-2.426
Cc1ccc(-c2ccnc(N3CCC4(CCO4)CC3)n2)c(C)n1,6.641
COC(=O)CC(c1cccs1)c1oc(C)cc(=O)c1O (stereo unspecified),2.65
CNC(=O)COc1ccccc1CNC1CCc2ncnn2C1 (stereo unspecified),-0.211
Cc1nc(C)c(C(C)NCc2c(C)nn(C)c2N(C)C)s1 (stereo unspecified),3.683
O=C(N[C@@H]1CN(Cc2ccsc2)[C@@H]2CCCO[C@@H]21)C1CC1,1.519
COc1cc(C(=O)NC(C)c2cccs2)cc2c1OCCO2 (stereo unspecified),4.535
CC(=O)N1CCCC2(C1)CN(C(=O)c1ccncc1)CCO2 (stereo unspecified),0.1343
Cc1ccc(-c2cc(C)nc(C3CCCN3S(C)(=O)=O)n2)cc1 (stereo unspecified),1.656
Cc1c(C(=O)O)cnn1-c1ccc(-c2nc(C(C)(C)C)no2)cn1,-3.989
COc1ccc(Br)c(C(=O)N2CCCC(c3nc(C)no3)C2)c1 (stereo unspecified),6.013
COC(=O)Cc1cccc(NC(=O)Cc2ccon2)c1,2.922

5 of the entries, repeated:

- Cc1ccc(-c2ccnc(N3CCC4(CCO4)CC3)n2)c(C)n1 : 6.641%
- Cc1cccc(C(C)(C)CNc2cn[nH]c(=O)c2Cl)c1 : 2.009%
- COC(=O)Cc1cccc(NC(=O)Cc2ccon2)c1 : 2.922%
- Cn1cccc1C(=O)NC[C@H]1C[C@@H]2CN(C(=O)c3ccno3)C[C@H]2O1 : 2.443%
- c1cncc(OC[C@]23COC[C@H]2CN(Cc2nccs2)C3)c1 : 0.3327%